{"sequences": {"note": "Protein sequences, listed by entry. Tags and fused reporters are not part of them. Lines headed by an entry give the natural chain unless they say otherwise; changes in a name come on top.", "UniProt Q01959, whole entry, looked up": "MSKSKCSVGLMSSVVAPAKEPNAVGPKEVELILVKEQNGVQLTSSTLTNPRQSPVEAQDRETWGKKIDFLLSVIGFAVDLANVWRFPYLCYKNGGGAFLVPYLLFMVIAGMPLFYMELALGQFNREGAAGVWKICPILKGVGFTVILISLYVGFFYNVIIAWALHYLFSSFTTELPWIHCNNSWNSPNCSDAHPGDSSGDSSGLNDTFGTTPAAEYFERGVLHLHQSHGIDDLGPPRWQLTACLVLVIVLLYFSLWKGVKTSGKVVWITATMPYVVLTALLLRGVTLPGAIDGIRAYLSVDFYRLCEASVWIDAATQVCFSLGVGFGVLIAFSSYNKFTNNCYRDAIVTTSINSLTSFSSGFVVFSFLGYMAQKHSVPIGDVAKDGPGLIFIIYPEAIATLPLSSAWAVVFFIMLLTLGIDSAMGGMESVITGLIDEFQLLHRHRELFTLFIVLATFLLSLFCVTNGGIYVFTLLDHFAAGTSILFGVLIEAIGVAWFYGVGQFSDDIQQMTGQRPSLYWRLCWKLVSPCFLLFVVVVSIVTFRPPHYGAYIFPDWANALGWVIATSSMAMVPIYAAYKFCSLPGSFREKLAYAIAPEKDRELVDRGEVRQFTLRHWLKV", "UniProt P19785, whole entry, looked up": "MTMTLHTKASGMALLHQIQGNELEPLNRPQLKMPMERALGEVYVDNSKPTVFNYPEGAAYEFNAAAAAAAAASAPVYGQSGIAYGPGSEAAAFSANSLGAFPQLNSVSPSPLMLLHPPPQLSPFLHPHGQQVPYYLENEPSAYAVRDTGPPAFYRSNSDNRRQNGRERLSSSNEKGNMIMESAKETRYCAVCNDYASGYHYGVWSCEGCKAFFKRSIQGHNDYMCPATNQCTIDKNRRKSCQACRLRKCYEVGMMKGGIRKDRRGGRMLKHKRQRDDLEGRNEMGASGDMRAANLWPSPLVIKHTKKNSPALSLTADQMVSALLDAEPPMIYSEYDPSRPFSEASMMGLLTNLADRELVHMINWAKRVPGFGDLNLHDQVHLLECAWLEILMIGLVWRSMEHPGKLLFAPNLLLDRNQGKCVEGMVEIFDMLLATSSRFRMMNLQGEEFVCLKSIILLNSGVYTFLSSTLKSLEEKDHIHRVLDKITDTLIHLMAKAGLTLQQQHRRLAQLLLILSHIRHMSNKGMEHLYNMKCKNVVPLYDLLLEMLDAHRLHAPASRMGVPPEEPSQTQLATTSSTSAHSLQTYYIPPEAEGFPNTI", "UniProt Q5TCH4": "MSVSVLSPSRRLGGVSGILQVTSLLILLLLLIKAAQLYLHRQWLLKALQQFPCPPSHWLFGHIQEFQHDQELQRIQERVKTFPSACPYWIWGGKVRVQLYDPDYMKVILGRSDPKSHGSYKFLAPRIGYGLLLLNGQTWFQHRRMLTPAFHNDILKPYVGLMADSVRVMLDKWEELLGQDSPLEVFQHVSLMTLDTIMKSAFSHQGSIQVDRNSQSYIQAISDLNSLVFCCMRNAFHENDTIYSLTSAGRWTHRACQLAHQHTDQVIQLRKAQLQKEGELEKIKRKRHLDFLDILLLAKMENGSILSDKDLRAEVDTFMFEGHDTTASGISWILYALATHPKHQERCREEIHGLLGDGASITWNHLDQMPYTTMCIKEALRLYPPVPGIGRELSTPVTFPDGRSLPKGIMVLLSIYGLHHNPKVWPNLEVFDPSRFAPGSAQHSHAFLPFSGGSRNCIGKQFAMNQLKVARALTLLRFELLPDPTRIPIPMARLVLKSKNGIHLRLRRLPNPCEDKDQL", "UniProt P22680": "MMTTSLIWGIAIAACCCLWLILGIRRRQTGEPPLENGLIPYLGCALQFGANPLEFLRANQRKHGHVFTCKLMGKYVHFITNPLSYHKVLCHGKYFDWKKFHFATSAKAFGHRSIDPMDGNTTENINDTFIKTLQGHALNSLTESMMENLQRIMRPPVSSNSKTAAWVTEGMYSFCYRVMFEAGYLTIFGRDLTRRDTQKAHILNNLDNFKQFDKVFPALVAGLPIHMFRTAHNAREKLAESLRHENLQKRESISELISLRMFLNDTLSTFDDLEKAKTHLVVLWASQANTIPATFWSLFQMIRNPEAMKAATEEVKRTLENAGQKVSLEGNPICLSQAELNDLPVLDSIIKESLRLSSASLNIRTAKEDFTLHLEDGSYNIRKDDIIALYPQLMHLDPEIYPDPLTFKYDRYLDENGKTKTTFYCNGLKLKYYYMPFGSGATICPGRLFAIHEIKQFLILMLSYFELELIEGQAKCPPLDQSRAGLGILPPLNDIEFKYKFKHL", "UniProt P19838": "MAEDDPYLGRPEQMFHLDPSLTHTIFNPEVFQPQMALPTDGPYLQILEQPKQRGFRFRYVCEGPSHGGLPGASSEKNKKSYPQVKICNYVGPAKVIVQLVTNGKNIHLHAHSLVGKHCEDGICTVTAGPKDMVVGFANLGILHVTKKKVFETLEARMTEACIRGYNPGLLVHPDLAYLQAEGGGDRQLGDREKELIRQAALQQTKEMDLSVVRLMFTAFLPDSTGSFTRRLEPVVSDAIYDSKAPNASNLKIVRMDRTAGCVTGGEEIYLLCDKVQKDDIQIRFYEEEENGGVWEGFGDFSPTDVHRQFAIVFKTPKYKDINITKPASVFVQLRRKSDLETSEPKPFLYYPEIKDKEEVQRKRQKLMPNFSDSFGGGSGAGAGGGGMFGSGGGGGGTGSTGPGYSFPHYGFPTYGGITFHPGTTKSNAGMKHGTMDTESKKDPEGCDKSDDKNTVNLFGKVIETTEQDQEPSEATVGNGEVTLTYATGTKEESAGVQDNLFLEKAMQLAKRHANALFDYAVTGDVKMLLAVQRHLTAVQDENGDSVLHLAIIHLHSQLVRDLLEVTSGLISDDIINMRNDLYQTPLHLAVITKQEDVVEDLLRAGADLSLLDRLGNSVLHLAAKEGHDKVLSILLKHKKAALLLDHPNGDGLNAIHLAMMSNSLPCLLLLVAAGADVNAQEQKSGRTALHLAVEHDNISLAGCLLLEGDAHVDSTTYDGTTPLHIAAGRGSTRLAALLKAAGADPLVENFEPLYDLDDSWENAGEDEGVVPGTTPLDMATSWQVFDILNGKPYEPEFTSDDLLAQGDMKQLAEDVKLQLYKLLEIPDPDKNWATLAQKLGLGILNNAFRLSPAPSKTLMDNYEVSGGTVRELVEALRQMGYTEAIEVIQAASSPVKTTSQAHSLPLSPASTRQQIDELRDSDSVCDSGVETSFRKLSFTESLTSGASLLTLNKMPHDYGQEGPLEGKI", "UniProt Q16236, whole entry, looked up": "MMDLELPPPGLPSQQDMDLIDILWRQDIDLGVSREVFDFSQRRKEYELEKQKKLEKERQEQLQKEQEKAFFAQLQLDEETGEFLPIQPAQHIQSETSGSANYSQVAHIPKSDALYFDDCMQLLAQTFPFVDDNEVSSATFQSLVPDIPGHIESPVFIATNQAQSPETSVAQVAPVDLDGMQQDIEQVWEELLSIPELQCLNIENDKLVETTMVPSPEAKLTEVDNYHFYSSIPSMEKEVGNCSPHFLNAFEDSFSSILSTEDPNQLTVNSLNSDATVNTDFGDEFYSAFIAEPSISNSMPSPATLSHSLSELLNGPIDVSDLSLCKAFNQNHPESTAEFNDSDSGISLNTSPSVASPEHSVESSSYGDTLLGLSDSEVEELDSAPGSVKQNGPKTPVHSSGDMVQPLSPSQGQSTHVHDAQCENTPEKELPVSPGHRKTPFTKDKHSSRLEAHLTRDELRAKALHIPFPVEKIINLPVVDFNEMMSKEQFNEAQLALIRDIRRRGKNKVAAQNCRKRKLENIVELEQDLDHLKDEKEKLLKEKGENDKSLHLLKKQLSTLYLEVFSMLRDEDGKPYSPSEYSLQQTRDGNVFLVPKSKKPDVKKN", "UniProt P03372, whole entry, looked up": "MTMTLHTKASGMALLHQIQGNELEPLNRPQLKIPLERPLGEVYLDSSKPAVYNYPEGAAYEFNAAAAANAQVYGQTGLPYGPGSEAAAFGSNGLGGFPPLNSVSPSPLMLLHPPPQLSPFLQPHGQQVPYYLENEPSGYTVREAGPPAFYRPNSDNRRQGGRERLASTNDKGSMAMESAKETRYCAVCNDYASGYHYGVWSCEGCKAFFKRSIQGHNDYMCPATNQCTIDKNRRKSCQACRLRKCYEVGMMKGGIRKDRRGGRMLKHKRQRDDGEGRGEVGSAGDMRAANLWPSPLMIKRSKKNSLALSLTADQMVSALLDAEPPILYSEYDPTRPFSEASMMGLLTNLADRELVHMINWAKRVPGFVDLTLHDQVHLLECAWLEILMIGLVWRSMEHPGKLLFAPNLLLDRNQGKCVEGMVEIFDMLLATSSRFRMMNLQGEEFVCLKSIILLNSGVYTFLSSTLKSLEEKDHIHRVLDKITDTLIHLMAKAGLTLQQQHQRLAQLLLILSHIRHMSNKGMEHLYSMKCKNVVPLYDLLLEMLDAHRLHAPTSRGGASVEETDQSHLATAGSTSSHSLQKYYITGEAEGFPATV"}, "source": "PubChem BioAssay (EPA / NIEHS)", "key": {"[1]": {"molecular_target": "human Dopamine Transporter (DAT), SLC6A3 (gene 6531) (UniProt Q01959)", "experiment": "NVS_TR_hDAT: NovaScreen (NVS) Transporter Assay for human Dopamine Transporter (DAT) (AID 2283374; active = hit-call score of the fitted dose curve at least 0.9, where 1 is the maximum)", "outline": "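Duplicate single-point screening at 25 uM preceded concentration-series follow-up of actives. Binding was measured by competitive displacement of a radioligand from DAT protein, filter-counted by scintillation 1 h after dosing. Decrease relative to DMSO taken as activity.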"}, "[2]": {"molecular_target": "mouse Estrogen Receptor alpha (Era), Esr1 (gene 13982) (UniProt P19785)", "experiment": "NVS_NR_mERa: NovaScreen (NVS) Nuclear Receptor Binding Assay for mouse Estrogen Receptor alpha (Era) (AID 2283378; active = hit-call score of the fitted dose curve at least 0.9, where 1 is the maximum)", "outline": "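Filter scintillation counts of bound radioligand, measured 18 h post-dose, gave the readout; decreased signal relative to DMSO controls indicated displacement from mouse Era. Primary screen ran in duplicate at 25 uM; active chemicals were retested across concentrations.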"}, "[3]": {"read-out": "Cytochrome P450 (CYP1A1), CYP1A1 (gene 1543)", "experiment": "LTEA_HepaRG_CYP1A1: Life Technologies and Expression Analysis (LTEA) Assay for Cytochrome P450 (CYP1A1) using HepaRG (AID 2283454)", "details": "actives raise or lower the signal; mRNA level, 48 h", "outline": "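qRT-PCR read-out: CYP1A1 transcript normalized to three housekeeping genes, fitted bidirectionally against 0.5% DMSO vehicle baseline. Human HepaRG cells, 48 h chemical exposure, 8-point half-log series topping at 100 uM.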"}, "[4]": {"read-out": "Cytochrome P450 (CYP24A1), CYP24A1 (gene 1591)", "experiment": "LTEA_HepaRG_CYP24A1: Life Technologies and Expression Analysis (LTEA) Assay for Cytochrome P450 (CYP24A1) using HepaRG (AID 2283478)", "details": "actives raise or lower the signal; mRNA level, 48 h", "outline": "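qRT-PCR read-out: CYP24A1 transcript levels normalized to three housekeeping genes, bidirectional curve fits against 0.5% DMSO baseline. Human HepaRG cells treated 48 h with chemicals at eight concentrations from 100 uM in half-log steps.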"}, "[5]": {"read-out": "Cytochrome P450 (CYP2B6), CYP2B6 (gene 1555)", "experiment": "LTEA_HepaRG_CYP2B6: Life Technologies and Expression Analysis (LTEA) Assay for Cytochrome P450 (CYP2B6) using HepaRG (AID 2283481)", "details": "actives raise or lower the signal; mRNA level, 48 h", "outline": "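Read-out is CYP2B6 mRNA by TaqMan qRT-PCR, normalized to three housekeeping genes and fitted bidirectionally against 0.5% DMSO baseline. Human HepaRG cells received test chemicals for 48 h, top concentration 100 uM, half-log dilutions.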"}, "CYP2C8 (gene 1558)": {"read-out": "CYP2C8 (gene 1558)", "experiment": "LTEA_HepaRG_CYP2C8: Life Technologies and Expression Analysis (LTEA) Assay for CYP2C8 using HepaRG (AID 2283483)", "details": "actives raise or lower the signal; mRNA level, 48 h", "outline": "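CYP2C8 expression measured by TaqMan qRT-PCR and normalized to three housekeeping genes. HepaRG cultures were treated for 48 h with an eight-point half-log series topping at 100 uM, vehicle 0.5% DMSO, duplicates; fitted both directions against DMSO.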"}, "CYP2E1 (gene 1571)": {"read-out": "CYP2E1 (gene 1571)", "experiment": "LTEA_HepaRG_CYP2E1: Life Technologies and Expression Analysis (LTEA) Assay for CYP2E1 using HepaRG (AID 2283485)", "details": "actives raise or lower the signal; mRNA level, 48 h", "outline": "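CYP2E1 transcript measured by Fluidigm qRT-PCR against three housekeeping genes in human HepaRG cells treated 48 h (top 100 uM, half-log steps, 0.5% DMSO vehicle). Gain or loss fitted relative to DMSO baseline.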"}, "CYP4A11 (gene 1579)": {"read-out": "CYP4A11 (gene 1579)", "experiment": "LTEA_HepaRG_CYP4A11: Life Technologies and Expression Analysis (LTEA) Assay for CYP4A11 using HepaRG (AID 2283486)", "details": "actives raise or lower the signal; mRNA level, 48 h", "outline": "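CYP4A11 transcript levels were quantified by TaqMan qRT-PCR after HepaRG human liver cells were treated for 48 hours with test chemicals (top 100 uM, half-log dilutions, 0.5% DMSO). Gain or loss of signal was fitted relative to DMSO.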"}, "[6]": {"read-out": "Cytochrome P450 4A22 (Homo sapiens) (UniProt Q5TCH4)", "experiment": "LTEA_HepaRG_CYP4A22: Life Technologies and Expression Analysis (LTEA) Assay for Cytochrome P450 4A22 (CYP4A22) using HepaRG (AID 2283495)", "details": "actives raise or lower the signal; mRNA level, 48 h", "outline": "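HepaRG, 48 h post-plating -> serum-free induction medium; dosed 48 h, duplicate, 8 conc. (100 uM top, half-log), 0.5% DMSO. Readout: CYP4A22 mRNA by qRT-PCR, ACTB/GAPDH/POLR2A normalization; gain/loss fit relative to DMSO.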"}, "[7]": {"read-out": "Cytochrome P450 7A1 (Homo sapiens) (UniProt P22680)", "experiment": "LTEA_HepaRG_CYP7A1: Life Technologies and Expression Analysis (LTEA) Assay for Cytochrome P450 7A1 (CYP7A1) using HepaRG (AID 2283496)", "details": "actives raise or lower the signal; mRNA level, 48 h", "outline": "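HepaRG, 48 h exposure, 8-pt half-log series from 100 uM, 0.5% DMSO vehicle, duplicates. Readout: TaqMan qRT-PCR mRNA vs three housekeeping genes; bidirectional curve fit against DMSO baseline.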"}, "[8]": {"read-out": "Nuclear factor NF-kappa-B p105 subunit (Homo sapiens) (UniProt P19838)", "experiment": "LTEA_HepaRG_NFKB1: Life Technologies and Expression Analysis (LTEA) Assay for Nuclear Factor Kappa B Subunit 1 (NFKB1) using HepaRG (AID 2283521)", "details": "actives raise or lower the signal; mRNA level, 48 h", "outline": "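NFKB1 transcript was measured by TaqMan qRT-PCR on Fluidigm arrays, normalised to three housekeeping genes and fitted in both directions against 0.5% DMSO. HepaRG cells were dosed in duplicate for 48 h in serum-free induction medium, eight half-log steps from 100 uM.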"}, "[9]": {"read-out": "Nuclear factor erythroid 2-related factor 2 (Homo sapiens) (UniProt Q16236)", "experiment": "LTEA_HepaRG_NFE2L2: Life Technologies and Expression Analysis (LTEA) Assay for Nuclear factor erythroid 2-related factor 2 (NFE2L2) Transcription Factor using HepaRG (AID 2283527)", "details": "actives raise or lower the signal; mRNA level, 48 h", "outline": "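NFE2L2 transcript level was read by qRT-PCR (housekeeping ACTB/GAPDH/POLR2A normalisation) after 48 h chemical treatment of HepaRG in serum-free induction medium. Duplicate 8-point half-log curves, top 100 uM, 0.5% DMSO vehicle; up- or down-regulation fitted against vehicle.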"}, "[10]": {"experiment": "Tanguay_ZF_120hpf_BRAI_legacy: (Legacy) Oregon State University Tanguay Lab 120 Hour Post-fertilization zebrafish Assay for Brain Malformation (AID 2283641; active = hit-call score of the fitted dose curve at least 0.9, where 1 is the maximum)", "outline": "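Read-out: binary brain morphology call at 120 hpf (brightfield), fitted in gain-of-signal direction vs DMSO. Wild-type Tropical 5D embryos, static exposure, 28C, 0.64% DMSO final; 5uM trimethyltin chloride as positive control.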"}, "[11]": {"experiment": "STM_H9_OrnithineISnorm_perc: Stemina devTOX quickPredict H9 human embryonic stem cell (hESC)-based Assay for Ornithine (ORN) Metabolite Biomarker, Normalized (AID 2283712);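 also: ornithine released into spent medium during last day measured by mass spectrometry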", "outline": "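Ornithine in spent medium from the last 24 h of a 72 h exposure, deproteinised and quantified by UPLC-HRMS against an isotope-labelled internal standard, expressed relative to 0.1% DMSO. Pluripotent H9 cells; compound refreshed every 24 h.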"}, "[12]": {"experiment": "STM_H9_CystineISnorm_perc: Stemina devTOX quickPredict H9 human embryonic stem cell (hESC)-based Assay for Cystine (CYSS) Metabolite Biomarker, Normalized (AID 2283713)", "outline": "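Cystine in spent media from the last 24 h of a 72 h H9 hESC exposure (daily re-dosing), measured by UPLC-HRMS. Values normalized to isotopic internal standard, then to 0.1% DMSO; viability via CellTiter-Fluor.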"}, "[13]": {"experiment": "CCTE_Deisenroth_AIME_384WELL_CTox_Active: Cytotoxicity Assessment (CTOX) in CCTE's 384-well Estrogen Receptor Transactivation Assay with AIME metabolic competence (metabolism positive), Deisenroth Lab (AID 2284037; active = hit-call score of the fitted dose curve at least 0.9, where 1 is the maximum;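 also: activity means signal loss indicating cell death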)", "outline": "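Cytotoxicity in VM7Luc4E2 breast cells, 24 hour, measured as protease-substrate fluorescence loss, after 2-hour metabolic conditioning with induced rat hepatic S9 in alginate microspheres. Concentrations 0.002 - 200 uM, 10 points, bidirectional fitting.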"}, "[14]": {"experiment": "CCTE_Deisenroth_AIME_384WELL_CTox_Inactive: Cytotoxicity Assessment (CTOX) in CCTE's 384-well Estrogen Receptor Transactivation Assay without AIME metabolic competence (metabolism negative), Deisenroth Lab (AID 2284039; active = hit-call score of the fitted dose curve at least 0.9, where 1 is the maximum;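 also: cell viability via live-cell protease substrate cleaved to fluorescent probe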)", "outline": "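Fluorescent protease-substrate viability readout after 24 h exposure of VM7Luc4E2 cells to conditioned medium. Chemicals (0.002–200 uM) first sat 2 h over alginate-water beads, no S9. Data fitted bidirectionally, loss of signal meaning viability loss.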"}, "[15]": {"molecular_target": "Estrogen receptor (Homo sapiens) (UniProt P03372)", "experiment": "CCTE_Deisenroth_AIME_384WELL_LUC_Shift: CCTE's 384-well Estrogen Receptor Transactivation Assay with AIME metabolic competence data shift (ERTA luciferase; difference in metabolism positive and negative), Deisenroth Lab (AID 2284041);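 also: shift is response with S9 minus without S9 so positive means metabolism raised ER signal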", "outline": "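Test chemicals (0.002–200 uM, 10-point) were pre-incubated 2 h with alginate microspheres containing phenobarbital/beta-naphthoflavone-induced male Sprague Dawley rat liver S9 or water, then medium was transferred to VM7Luc4E2 cells for 24 h luciferase readout; shift = S9-positive minus S9-negative normalized response.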"}}, "note": "For part of these data: Most of the hits are listed elsewhere, so they are rarer here than in the full data. Records with an inconclusive call do not appear. The entries are a selection whose mix differs from that of the whole data set. The source made the active and inactive calls. The calls were made as follows, unless noted: active = hit-call score of the fitted dose curve at least 0.9, where 1 is the maximum; inactive = score below 0.9.", "data": [{"smiles": "CCCCc1oc2ccccc2c1C(=O)c1cc(I)c(OCCN(CC)CC)c(I)c1", "values": [{"measurement": "AC50", "setting": "[1]", "value": "active: 6.5 µM"}, {"measurement": "AC50", "setting": "[2]", "value": "active: 10.1 µM"}, {"measurement": "AC50", "setting": "[3]", "value": "active: 16 µM"}, {"measurement": "outcome", "setting": "[4]", "value": "inactive"}, {"measurement": "AC50", "setting": "[5]", "value": "active: 60.4 µM"}, {"measurement": "AC50", "setting": "CYP2C8 (gene 1558)", "value": "active: 70.8 µM"}, {"measurement": "AC50", "setting": "CYP2E1 (gene 1571)", "value": "active: 47.5 µM"}, {"measurement": "AC50", "setting": "CYP4A11 (gene 1579)", "value": "active: 57.7 µM"}, {"measurement": "AC50", "setting": "[6]", "value": "active: 57.6 µM"}, {"measurement": "AC50", "setting": "[7]", "value": "active: 62.9 µM"}, {"measurement": "outcome", "setting": "[8]", "value": "inactive"}, {"measurement": "AC50", "setting": "[9]", "value": "active: 64.8 µM"}, {"measurement": "outcome", "setting": "[10]", "value": "inactive"}, {"measurement": "AC50", "setting": "[11]", "value": "active: 7.38 µM"}, {"measurement": "outcome", "setting": "[12]", "value": "inactive"}, {"measurement": "AC50", "setting": "[13]", "value": "active: 100 µM"}, {"measurement": "AC50", "setting": "[14]", "value": "active: 100 µM"}, {"measurement": "outcome", "setting": "[15]", "value": "inactive"}]}]}
